Laboratory results published in publication PMC11324738.
Results are given in words; binding and its absence hold for the method and conditions named. Binding seen in cells or lysates may run through a third protein. A yes stands for co-enrichment or nearness to the bait. Other partners may have been found.

By UniProt entry, the sequences of proteins in these tests, tags left out.
UniProt Q13585: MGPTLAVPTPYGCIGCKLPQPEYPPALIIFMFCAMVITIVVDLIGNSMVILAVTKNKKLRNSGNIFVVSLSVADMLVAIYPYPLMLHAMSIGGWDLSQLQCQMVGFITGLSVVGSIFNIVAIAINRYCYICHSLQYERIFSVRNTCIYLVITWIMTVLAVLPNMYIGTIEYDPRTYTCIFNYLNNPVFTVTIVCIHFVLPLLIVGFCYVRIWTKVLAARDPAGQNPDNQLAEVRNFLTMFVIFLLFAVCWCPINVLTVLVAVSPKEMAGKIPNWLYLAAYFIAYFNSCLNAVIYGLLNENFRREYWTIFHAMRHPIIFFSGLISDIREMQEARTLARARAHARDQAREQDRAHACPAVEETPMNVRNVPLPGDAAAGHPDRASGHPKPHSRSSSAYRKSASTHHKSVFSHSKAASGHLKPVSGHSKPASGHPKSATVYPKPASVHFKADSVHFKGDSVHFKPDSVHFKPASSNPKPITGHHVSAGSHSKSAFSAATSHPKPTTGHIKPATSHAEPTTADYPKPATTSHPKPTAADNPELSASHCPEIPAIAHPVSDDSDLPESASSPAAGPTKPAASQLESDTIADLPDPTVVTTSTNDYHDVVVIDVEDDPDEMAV
UniProt Q14318: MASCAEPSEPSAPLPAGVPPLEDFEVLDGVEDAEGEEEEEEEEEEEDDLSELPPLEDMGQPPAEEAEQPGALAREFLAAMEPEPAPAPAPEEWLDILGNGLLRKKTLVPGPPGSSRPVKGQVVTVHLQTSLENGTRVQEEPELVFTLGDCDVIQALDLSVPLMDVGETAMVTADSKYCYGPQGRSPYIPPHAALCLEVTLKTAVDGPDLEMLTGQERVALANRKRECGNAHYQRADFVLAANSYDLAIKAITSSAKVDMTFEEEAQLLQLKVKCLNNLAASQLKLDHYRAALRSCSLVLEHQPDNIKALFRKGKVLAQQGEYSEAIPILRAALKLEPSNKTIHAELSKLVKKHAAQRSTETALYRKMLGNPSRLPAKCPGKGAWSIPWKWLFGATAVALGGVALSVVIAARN
UniProt Q7Z6Z7: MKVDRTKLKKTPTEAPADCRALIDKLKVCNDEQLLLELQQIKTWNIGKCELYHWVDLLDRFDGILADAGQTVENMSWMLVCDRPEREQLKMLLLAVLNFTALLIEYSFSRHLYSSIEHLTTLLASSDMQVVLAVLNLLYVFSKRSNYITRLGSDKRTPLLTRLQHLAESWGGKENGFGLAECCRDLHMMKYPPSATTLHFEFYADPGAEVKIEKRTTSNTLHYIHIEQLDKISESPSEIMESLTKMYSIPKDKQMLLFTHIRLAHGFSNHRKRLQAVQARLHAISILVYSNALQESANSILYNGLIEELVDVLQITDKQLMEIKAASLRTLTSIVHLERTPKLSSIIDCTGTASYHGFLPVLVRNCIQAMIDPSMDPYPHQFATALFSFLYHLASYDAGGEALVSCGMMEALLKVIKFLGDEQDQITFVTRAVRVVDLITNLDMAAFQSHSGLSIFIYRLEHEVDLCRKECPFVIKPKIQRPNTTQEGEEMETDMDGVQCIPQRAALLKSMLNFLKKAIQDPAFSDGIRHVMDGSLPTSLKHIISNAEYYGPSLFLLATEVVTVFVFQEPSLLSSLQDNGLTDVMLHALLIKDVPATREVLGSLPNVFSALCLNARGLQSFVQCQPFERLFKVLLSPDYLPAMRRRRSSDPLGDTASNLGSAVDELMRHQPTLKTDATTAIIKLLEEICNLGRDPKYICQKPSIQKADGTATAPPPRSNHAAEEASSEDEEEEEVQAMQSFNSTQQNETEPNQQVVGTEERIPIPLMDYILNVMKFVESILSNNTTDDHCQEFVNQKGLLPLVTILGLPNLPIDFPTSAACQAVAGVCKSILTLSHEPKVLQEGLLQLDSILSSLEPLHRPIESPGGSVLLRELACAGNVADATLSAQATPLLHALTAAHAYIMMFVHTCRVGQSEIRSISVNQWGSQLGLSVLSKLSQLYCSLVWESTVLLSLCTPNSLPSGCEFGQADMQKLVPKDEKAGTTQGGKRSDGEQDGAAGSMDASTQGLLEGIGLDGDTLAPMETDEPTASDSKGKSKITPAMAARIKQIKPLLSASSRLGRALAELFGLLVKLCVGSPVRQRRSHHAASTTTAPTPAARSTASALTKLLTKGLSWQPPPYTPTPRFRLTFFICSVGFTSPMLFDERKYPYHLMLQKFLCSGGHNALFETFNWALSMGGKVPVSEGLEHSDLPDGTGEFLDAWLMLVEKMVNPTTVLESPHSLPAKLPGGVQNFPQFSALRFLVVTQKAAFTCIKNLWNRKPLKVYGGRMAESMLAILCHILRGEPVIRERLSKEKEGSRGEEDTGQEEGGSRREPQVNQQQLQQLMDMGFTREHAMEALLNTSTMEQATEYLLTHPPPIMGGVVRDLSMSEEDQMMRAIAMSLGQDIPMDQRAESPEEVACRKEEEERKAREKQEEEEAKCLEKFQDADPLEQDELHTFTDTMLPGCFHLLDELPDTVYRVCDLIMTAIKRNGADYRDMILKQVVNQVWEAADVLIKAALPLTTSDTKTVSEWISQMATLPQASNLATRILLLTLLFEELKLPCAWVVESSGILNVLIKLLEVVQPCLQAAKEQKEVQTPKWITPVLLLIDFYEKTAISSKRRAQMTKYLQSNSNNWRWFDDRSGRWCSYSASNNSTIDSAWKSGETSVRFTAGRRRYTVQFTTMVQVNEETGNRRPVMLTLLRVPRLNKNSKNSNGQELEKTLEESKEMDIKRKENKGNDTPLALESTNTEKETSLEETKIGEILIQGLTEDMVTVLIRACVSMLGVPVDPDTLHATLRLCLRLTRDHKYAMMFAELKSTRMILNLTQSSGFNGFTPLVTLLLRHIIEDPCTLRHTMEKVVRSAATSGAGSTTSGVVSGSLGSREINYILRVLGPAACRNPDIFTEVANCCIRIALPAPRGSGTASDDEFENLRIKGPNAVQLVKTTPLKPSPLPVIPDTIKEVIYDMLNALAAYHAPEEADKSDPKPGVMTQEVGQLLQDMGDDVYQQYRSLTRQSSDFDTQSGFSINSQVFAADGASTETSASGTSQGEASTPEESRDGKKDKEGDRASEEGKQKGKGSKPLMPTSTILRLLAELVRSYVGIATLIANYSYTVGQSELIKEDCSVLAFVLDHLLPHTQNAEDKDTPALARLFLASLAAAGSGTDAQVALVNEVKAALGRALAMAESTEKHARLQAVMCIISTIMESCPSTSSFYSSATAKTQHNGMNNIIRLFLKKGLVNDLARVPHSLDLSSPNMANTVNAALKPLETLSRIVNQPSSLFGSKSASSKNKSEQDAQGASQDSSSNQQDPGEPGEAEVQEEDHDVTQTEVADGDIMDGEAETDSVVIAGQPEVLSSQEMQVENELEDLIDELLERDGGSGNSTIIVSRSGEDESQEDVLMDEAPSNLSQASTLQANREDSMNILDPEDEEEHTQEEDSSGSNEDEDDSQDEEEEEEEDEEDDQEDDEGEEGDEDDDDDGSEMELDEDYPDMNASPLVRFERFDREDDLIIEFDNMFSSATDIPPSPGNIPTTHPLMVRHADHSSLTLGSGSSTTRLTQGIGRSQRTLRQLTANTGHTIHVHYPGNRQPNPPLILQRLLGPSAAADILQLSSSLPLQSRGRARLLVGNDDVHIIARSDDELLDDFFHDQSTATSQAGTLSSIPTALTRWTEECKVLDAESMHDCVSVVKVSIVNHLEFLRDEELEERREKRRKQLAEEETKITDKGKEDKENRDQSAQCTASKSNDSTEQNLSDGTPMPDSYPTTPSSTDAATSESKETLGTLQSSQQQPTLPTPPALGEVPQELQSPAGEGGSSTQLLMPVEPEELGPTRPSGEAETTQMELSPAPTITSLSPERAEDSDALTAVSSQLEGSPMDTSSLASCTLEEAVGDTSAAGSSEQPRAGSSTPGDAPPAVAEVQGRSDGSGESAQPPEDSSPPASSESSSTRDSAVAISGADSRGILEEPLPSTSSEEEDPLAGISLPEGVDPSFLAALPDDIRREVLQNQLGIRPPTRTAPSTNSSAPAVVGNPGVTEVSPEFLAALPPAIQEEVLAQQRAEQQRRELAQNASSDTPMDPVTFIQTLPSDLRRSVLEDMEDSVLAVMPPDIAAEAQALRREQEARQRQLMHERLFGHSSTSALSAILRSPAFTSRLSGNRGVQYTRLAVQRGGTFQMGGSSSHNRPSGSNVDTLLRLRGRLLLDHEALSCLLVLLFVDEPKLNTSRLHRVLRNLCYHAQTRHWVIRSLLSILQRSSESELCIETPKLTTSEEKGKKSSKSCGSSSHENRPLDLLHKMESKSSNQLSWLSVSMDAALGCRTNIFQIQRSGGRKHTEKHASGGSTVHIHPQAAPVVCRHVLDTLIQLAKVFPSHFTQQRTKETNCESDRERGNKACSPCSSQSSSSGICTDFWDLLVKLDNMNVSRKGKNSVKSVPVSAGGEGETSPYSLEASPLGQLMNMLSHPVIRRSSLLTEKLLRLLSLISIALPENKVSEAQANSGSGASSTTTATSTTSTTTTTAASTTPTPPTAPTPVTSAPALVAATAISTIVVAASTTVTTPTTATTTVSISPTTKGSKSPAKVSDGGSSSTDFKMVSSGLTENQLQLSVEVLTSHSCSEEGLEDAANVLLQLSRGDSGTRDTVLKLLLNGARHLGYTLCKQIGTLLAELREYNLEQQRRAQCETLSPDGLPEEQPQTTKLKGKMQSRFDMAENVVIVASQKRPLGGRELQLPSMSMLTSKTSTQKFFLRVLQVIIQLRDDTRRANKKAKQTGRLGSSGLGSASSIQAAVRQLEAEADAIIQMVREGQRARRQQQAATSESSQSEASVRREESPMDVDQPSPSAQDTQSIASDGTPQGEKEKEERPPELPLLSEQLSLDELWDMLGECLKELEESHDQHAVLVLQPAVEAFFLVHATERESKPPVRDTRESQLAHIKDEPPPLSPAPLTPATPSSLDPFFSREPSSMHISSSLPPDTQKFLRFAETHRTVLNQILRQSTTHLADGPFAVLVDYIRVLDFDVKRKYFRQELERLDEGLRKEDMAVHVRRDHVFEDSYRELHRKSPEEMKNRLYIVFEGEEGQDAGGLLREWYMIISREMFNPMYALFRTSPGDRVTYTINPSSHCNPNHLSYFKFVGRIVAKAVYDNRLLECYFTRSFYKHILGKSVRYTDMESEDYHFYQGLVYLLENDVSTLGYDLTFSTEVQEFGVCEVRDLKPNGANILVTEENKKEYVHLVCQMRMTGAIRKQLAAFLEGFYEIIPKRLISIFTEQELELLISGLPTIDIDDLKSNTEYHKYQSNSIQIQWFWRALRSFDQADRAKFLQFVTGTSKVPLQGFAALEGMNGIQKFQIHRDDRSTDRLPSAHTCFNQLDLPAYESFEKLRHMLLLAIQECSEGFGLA
UniProt Q99497: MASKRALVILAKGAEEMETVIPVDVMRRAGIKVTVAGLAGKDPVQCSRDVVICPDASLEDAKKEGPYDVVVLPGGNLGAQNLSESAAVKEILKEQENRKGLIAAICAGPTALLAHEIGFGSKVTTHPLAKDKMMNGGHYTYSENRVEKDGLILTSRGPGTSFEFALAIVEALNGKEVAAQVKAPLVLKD
UniProt Q8IXI2: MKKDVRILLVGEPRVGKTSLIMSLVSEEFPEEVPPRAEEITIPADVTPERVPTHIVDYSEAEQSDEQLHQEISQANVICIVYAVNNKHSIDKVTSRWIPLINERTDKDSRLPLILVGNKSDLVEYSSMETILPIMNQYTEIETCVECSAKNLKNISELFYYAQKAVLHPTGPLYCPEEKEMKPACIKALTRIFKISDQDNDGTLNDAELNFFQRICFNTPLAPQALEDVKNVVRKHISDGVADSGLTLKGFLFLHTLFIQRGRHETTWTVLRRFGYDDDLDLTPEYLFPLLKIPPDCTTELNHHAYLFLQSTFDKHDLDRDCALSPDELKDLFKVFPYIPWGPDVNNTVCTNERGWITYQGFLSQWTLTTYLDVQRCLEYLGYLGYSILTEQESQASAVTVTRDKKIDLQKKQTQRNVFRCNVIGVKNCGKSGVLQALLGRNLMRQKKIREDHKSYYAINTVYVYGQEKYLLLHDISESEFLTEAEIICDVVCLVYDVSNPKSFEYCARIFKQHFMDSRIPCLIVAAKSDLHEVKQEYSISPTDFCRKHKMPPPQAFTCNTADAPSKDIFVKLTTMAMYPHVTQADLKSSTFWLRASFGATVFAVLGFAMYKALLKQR
UniProt P21796: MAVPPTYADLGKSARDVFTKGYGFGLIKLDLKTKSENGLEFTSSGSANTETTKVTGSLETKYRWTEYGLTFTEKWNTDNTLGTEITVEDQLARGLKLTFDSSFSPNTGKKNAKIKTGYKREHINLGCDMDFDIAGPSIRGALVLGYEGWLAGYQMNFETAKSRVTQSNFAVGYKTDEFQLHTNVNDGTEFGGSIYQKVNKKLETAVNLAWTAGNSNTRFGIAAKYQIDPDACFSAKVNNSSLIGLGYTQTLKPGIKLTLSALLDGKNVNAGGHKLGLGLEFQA

B1: HK2 (enzyme, UniProt P52789 1-917)
chain: MIASHLLAYFFTELNHDQVQKVDQYLYHMRLSDETLLEISKRFRKEMEKGLGATTHPTAAVKMLPTFVRSTPDGTEHGEFLALDLGGTNFRVLWVKVTDNGLQKVEMENQIYAIPEDIMRGSGTQLFDHIAECLANFMDKLQIKDKKLPLGFTFSFPCHQTKLDESFLVSWTKGFKSSGVEGRDVVALIRKAIQRRGDFDIDIVAVVNDTVGTMMTCGYDDHNCEIGLIVGTGSNACYMEEMRHIDMVEGDEGRMCINMEWGAFGDDGSLNDIRTEFDQEIDMGSLNPGKQLFEKMISGMYMGELVRLILVKMAKEELLFGGKLSPELLNTGRFETKDISDIEGEKDGIRKAREVLMRLGLDPTQEDCVATHRICQIVSTRSASLCAATLAAVLQRIKENKGEERLRSTIGVDGSVYKKHPHFAKRLHKTVRRLVPGCDVRFLRSEDGSGKGAAMVTAVAYRLADQHRARQKTLEHLQLSHDQLLEVKRRMKVEMERGLSKETHASAPVKMLPTYVCATPDGTEKGDFLALDLGGTNFRVLLVRVRNGKWGGVEMHNKIYAIPQEVMHGTGDELFDHIVQCIADFLEYMGMKGVSLPLGFTFSFPCQQNSLDESILLKWTKGFKASGCEGEDVVTLLKEAIHRREEFDLDVVAVVNDTVGTMMTCGFEDPHCEVGLIVGTGSNACYMEEMRNVELVEGEEGRMCVNMEWGAFGDNGCLDDFRTEFDVAVDELSLNPGKQRFEKMISGMYLGEIVRNILIDFTKRGLLFRGRISERLKTRGIFETKFLSQIESDCLALLQVRAILQHLGLESTCDDSIIVKEVCTVVARRAAQLCGAGMAAVVDRIRENRGLDALKVTVGVDGTLYKLHPHFAKVMHETVKDLAPKCDVSFLQSEDGSGKGAALITAVACRIREAGQR
B2: CERS1 (protein, UniProt P27544 1-350)
chain: MAAAGPAAGPTGPEPMPSYAQLVQRGWGSALAAARGCTDCGWGLARRGLAEHAHLAPPELLLLALGALGWTALRSAATARLFRPLAKRCCLQPRDAAKMPESAWKFLFYLGSWSYSAYLLFGTDYPFFHDPPSVFYDWTPGMAVPRDIAAAYLLQGSFYGHSIYATLYMDTWRKDSVVMLLHHVVTLILIVSSYAFRYHNVGILVLFLHDISDVQLEFTKLNIYFKSRGGSYHRLHALAADLGCLSFGFSWFWFRLYWFPLKVLYATSHCSLRTVPDIPFYFFFNALLLLLTLMNLYWFLYIVAFAAKVLTGQVHELKDLREYDTAEAQSLKPSKAEKPLRNGLVKDKRF

Target: GPR50-V1 and GPR50-V2 homodimer (GPR50 fused to the V1 or V2 segment of Venus, BiCAP bait) (human) (UniProt Q13585)
Test: affinity purification with mass spectrometry; BiCAP: HEK 293T co-transfected with GPR50-V1 and GPR50-V2 for 30 h; RIPA lysate incubated with GFP-trap beads overnight at 4 °C; on-bead trypsin digest, LC-MS/MS

| Molecule | binding |
| --- | --- |
| AMFR (from UniProt Q9UKV5 1-643) (enzyme) | binds |
| FKBP8 (from UniProt Q14318 1-412) | binds |
| HUWE1 (from UniProt Q7Z6Z7 1-4374) (enzyme) | binds |
| MARK2 (from UniProt Q7KZI7 1-788) (enzyme) | binds |
| PARK7 (from UniProt Q99497 1-189) | binds |
| RHOT1 (from UniProt Q8IXI2 1-618) | binds |
| SQSTM1 (from UniProt Q13501 1-440) | binds |
| VCP (from UniProt P55072 1-806) | binds |
| VDAC1 (from UniProt P21796 1-283) | binds |
| B1 | binds |
| B2 | binds |
